Data taken from article PMC9973269.
Results are given in words; binding and its absence hold for the method and conditions named. Binding seen in cells or lysates may run through a third protein. A result given as binding can be weak or reduced; the word gives no strength. Where a sequence is shown, tags or fusion partners need not be part of it.

Target: T1, GST-ScaA (passenger domain of ScaA, ScaA_(30-1000), Boryong genotype) (Orientia tsutsugamushi (Boryong genotype))
T1 sequence: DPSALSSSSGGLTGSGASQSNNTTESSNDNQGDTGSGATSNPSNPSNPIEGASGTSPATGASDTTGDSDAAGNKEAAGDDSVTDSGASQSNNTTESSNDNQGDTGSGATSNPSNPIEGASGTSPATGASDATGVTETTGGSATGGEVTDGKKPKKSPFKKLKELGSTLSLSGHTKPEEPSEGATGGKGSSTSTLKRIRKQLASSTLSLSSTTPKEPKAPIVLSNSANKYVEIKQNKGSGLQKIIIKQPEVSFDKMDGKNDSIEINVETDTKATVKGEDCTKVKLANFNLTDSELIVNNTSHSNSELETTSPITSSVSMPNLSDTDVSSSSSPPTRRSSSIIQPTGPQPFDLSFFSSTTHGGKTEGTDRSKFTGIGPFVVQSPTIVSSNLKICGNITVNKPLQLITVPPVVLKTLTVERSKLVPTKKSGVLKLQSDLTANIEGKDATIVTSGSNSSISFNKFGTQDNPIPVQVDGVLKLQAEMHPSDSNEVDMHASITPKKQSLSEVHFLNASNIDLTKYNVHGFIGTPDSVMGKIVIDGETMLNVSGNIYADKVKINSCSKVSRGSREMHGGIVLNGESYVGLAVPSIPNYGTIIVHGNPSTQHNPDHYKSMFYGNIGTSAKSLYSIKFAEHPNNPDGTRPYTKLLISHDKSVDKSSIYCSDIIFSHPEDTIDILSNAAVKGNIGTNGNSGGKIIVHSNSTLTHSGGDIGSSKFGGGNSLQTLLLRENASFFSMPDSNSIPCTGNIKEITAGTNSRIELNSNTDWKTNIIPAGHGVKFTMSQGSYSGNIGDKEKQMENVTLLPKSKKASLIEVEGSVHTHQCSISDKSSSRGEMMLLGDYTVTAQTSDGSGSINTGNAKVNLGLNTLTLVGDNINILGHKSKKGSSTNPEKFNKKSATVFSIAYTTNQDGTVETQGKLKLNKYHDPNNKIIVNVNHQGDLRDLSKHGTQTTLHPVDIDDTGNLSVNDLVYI
Experiment: pull-down; GST fusion proteins bound to glutathione beads, incubated with lysate (NP-40 buffer) of cells transfected with full-length or truncated vMLL5 at 4°C for 4 h; washed four times with 20 mM HEPES pH 7.4, 100 mM NaCl, 1% NP-40; immunoblot with anti-HA; only the target purified

Substance	binding
vMLL5.N (N-terminal counterpart of vMLL5.C), HA tagged (human) (domain or fragment)	no binding
SET domain of vMLL5, HA tagged (human) (domain or fragment)	binds
